The structures appear in SMILES notation. The list is a part of this screen's results and no random one: it gathers tests that were run many times, whatever their T/C, doses with no T/C, and many T/C values between a quarter and a half above the control. Further doses and runs are listed elsewhere. T/C is the treated group as % of the vehicle group. Some entries give survivors of the animals treated and no T/C: the source holds a T/C of zero for them, seemingly a mark for toxic or unscored doses. Counts of survivors are from the toxicity check (mostly the fifth day) where no day follows; animals may have died later. Schedules are NCI's codes, read here as Q, the interval in days (D) or hours (H), X, the number of doses. For survival time, the PubChem record calls one and a half times the control and up active, and a quarter to a half above the control has no call in these data; cut-offs in other NCI protocols can differ. Some doses were run more than once; the results are listed from low to high. Some T/C values carry the count of animals alive at the toxicity check (mostly the fifth day); without a count, all were alive then.

This experiment has as its system CD2F1 mice, L1210 leukemia ip, survival T/C. In words: NCI In Vivo Anticancer Drug Screen. Data for tumor model L1210 Leukemia (intraperitoneal) in CD2F1 (CDF1) mice. Particulars: higher T/C = longer survival. Put shortly:
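In this screen, transplantable tumors were grown in mice given either the compound or its vehicle. Results were expressed as the treated measurement relative to the control measurement.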

Take `OCC1OC(n2cnc3c(=S)nc[nH]c32)C(O)C1O` (stereo not drawn): the T/C is 131 % of control (T/C endpoint: mean survival time, dose: 30.0 mg/kg/injection, schedule: Q01DX005 (ip), vehicle: saline); 134 % of control (T/C endpoint: mean survival time, dose: 60.0 mg/kg/injection, schedule: Q01DX005 (ip), vehicle: saline); 137 % of control (T/C endpoint: mean survival time, dose: 100.0 mg/kg/injection, schedule: Q01DX009 (ip), vehicle: saline); 137 % of control (T/C endpoint: mean survival time, dose: 100.0 mg/kg/injection, schedule: Q03DX003 (ip), vehicle: saline); 141 % of control (T/C endpoint: mean survival time, dose: 120.0 mg/kg/injection, schedule: Q01DX005 (ip), vehicle: saline); 137 % of control (T/C endpoint: mean survival time, dose: 150.0 mg/kg/injection, schedule: Q01DX010 (ip), vehicle: saline). Also, the T/C (T/C endpoint: mean survival time, dose: 200.0 mg/kg/injection, schedule: Q01DX005 (ip), vehicle: saline) was 141 % of control; the T/C (T/C endpoint: mean survival time, dose: 200.0 mg/kg/injection, schedule: Q01DX007 (ip), vehicle: Klucel (hydroxypropylcellulose) (HPC)) was 125 % of control; the T/C (T/C endpoint: mean survival time, dose: 200.0 mg/kg/injection, schedule: Q01DX009 (ip), vehicle: Klucel (hydroxypropylcellulose) (HPC)) is 126 % of control; the T/C (T/C endpoint: mean survival time, dose: 200.0 mg/kg/injection, schedule: Q01DX009 (ip), vehicle: saline) was 144 % of control; the T/C (T/C endpoint: mean survival time, dose: 225.0 mg/kg/injection, schedule: Q01DX010 (ip), vehicle: saline) is 130 % of control; the T/C (T/C endpoint: mean survival time, dose: 300.0 mg/kg/injection, schedule: Q01DX005 (ip), vehicle: saline, evaluated on day 35) was 130 % of control. In addition, the T/C was 127 % of control (T/C endpoint: mean survival time, dose: 300.0 mg/kg/injection, schedule: Q01DX005 (ip), vehicle: saline, run until all animals had died); 128 % of control (T/C endpoint: mean survival time, dose: 300.0 mg/kg/injection, schedule: Q01DX009 (ip), vehicle: saline, evaluated on day 35); 129 % of control (T/C endpoint: mean survival time, dose: 300.0 mg/kg/injection, schedule: Q01DX009 (ip), vehicle: saline, run until all animals had died); 148 % of control (T/C endpoint: mean survival time, dose: 300.0 mg/kg/injection, schedule: Q01DX010 (ip), vehicle: saline); 127 % of control (T/C endpoint: mean survival time, dose: 300.0 mg/kg/injection, schedule: Q03HX024 (ip), vehicle: saline, evaluated on day 35); 125 % of control (T/C endpoint: mean survival time, dose: 300.0 mg/kg/injection, schedule: Q03HX024 (ip), vehicle: saline, run until all animals had died). In addition, the T/C reads like this: (T/C endpoint: mean survival time, dose: 400.0 mg/kg/injection, schedule: Q01DX007 (ip), vehicle: Klucel (hydroxypropylcellulose) (HPC)) 145 % of control; (T/C endpoint: mean survival time, dose: 400.0 mg/kg/injection, schedule: Q01DX009 (ip), vehicle: Klucel (hydroxypropylcellulose) (HPC)) 147 % of control; (T/C endpoint: mean survival time, dose: 400.0 mg/kg/injection, schedule: Q01DX010 (ip), vehicle: saline) 148 % of control; (T/C endpoint: mean survival time, dose: 600.0 mg/kg/injection, schedule: Q01DX005 (ip), vehicle: saline, evaluated on day 35) 144 % of control; (T/C endpoint: mean survival time, dose: 600.0 mg/kg/injection, schedule: Q01DX005 (ip), vehicle: saline, run until all animals had died) 132 % of control; (T/C endpoint: mean survival time, dose: 600.0 mg/kg/injection, schedule: Q01DX009 (ip), vehicle: saline, evaluated on day 35) 136 % of control. The T/C reads like this: (T/C endpoint: mean survival time, dose: 600.0 mg/kg/injection, schedule: Q01DX009 (ip), vehicle: saline, run until all animals had died) 129 % of control [9 of 10 alive]; (T/C endpoint: mean survival time, dose: 600.0 mg/kg/injection, schedule: Q03HX024 (ip), vehicle: saline, evaluated on day 35) 133 % of control [9 of 10 alive]; (T/C endpoint: mean survival time, dose: 600.0 mg/kg/injection, schedule: Q03HX024 (ip), vehicle: saline, run until all animals had died) 132 % of control; (T/C endpoint: mean survival time, dose: 900.0 mg/kg/injection, schedule: Q01DX002 (sc), vehicle: saline) 129 % of control; (T/C endpoint: mean survival time, dose: 1200.0 mg/kg/injection, schedule: Q01DX002 (sc), vehicle: saline) 133 % of control; (T/C endpoint: mean survival time, dose: 1200.0 mg/kg/injection, schedule: Q01DX005 (ip), vehicle: saline) 125 % of control. Moreover, the T/C reads like this: (T/C endpoint: mean survival time, dose: 1200.0 mg/kg/injection, schedule: Q03HX008 (ip), vehicle: saline) 141 % of control; (T/C endpoint: mean survival time, dose: 1200.0 mg/kg/injection, schedule: Q04DX003 (ip), vehicle: saline) 136 % of control; (T/C endpoint: mean survival time, dose: 2400.0 mg/kg/injection, schedule: Q03HX008 (ip), vehicle: saline) 147 % of control; (T/C endpoint: mean survival time, dose: 2400.0 mg/kg/injection, schedule: Q03HX024 (ip), vehicle: saline) 145 % of control [9 of 10 alive]; (T/C endpoint: mean survival time, dose: 2400.0 mg/kg/injection, schedule: Q04DX003 (ip), vehicle: saline) 126 % of control [9 of 10 alive]; (T/C endpoint: mean survival time, dose: 2400.0 mg/kg/injection, schedule: Q08DX002 (ip), vehicle: saline) 135 % of control. The T/C runs as follows: (T/C endpoint: median survival time, dose: 25.0 mg/kg/injection, schedule: Q01DX005 (ip), vehicle: water) 125 % of control; (T/C endpoint: median survival time, dose: 50.0 mg/kg/injection, schedule: Q01DX005 (ip), vehicle: water) 130 % of control; (T/C endpoint: median survival time, dose: 80.0 mg/kg/injection, schedule: Q01DX009 (ip), vehicle: saline) 127 and 142 % of control; (T/C endpoint: median survival time, dose: 100.0 mg/kg/injection, schedule: Q01DX005 (ip), vehicle: water) 134 % of control; (T/C endpoint: median survival time, dose: 200.0 mg/kg/injection, schedule: Q01DX005 (ip), vehicle: water) 143 % of control; (T/C endpoint: median survival time, dose: 320.0 mg/kg/injection, schedule: Q01DX009 (ip), vehicle: saline) 127 % of control [5 of 6 alive]. Further, for the setting “T/C endpoint: median survival time, dose: 800.0 mg/kg/injection, schedule: Q01DX005 (ip), vehicle: water”, the T/C was 143 % of control [5 of 6 alive]. Moreover, under “T/C endpoint: mean survival time, dose: 2400.0 mg/kg/injection, schedule: Q01DX005 (ip), vehicle: saline”, the survivor count is 5 of 10.
For the compound `Cc1ccc(C)c(NC(=O)NCc2ccccc2)c1`, the survivor count (T/C endpoint: mean survival time, dose: 400.0 mg/kg/injection, schedule: Q01DX009 (ip), vehicle: saline with Tween-80) was 2 of 6.
Take `Nc1ncnc2c1ncn2[C@@H](C=O)O[C@@H](C=O)CO`: the T/C was 128 % of control (T/C endpoint: mean survival time, dose: 0.78 mg/kg/injection, schedule: Q01DX009 (ip), vehicle: saline with Tween-80); 125 % of control (T/C endpoint: mean survival time, dose: 1.56 mg/kg/injection, schedule: Q01DX005 (ip), vehicle: other); 140 % of control (T/C endpoint: mean survival time, dose: 1.56 mg/kg/injection, schedule: Q01DX009 (ip), vehicle: saline with Tween-80); 137 % of control (T/C endpoint: mean survival time, dose: 3.13 mg/kg/injection, schedule: Q01DX005 (ip), vehicle: other); 141 % of control (T/C endpoint: mean survival time, dose: 6.25 mg/kg/injection, schedule: Q01DX005 (ip), vehicle: other); 132 % of control [4 of 6 alive] (T/C endpoint: mean survival time, dose: 12.5 mg/kg/injection, schedule: Q01DX005 (ip), vehicle: other). The survivor count is, setting by setting: (T/C endpoint: mean survival time, dose: 25.0 mg/kg/injection, schedule: Q01DX005 (ip), vehicle: other) 3 of 6; (T/C endpoint: mean survival time, dose: 25.0 mg/kg/injection, schedule: Q01DX005 (ip), vehicle: saline with Tween-80) 3 of 6; (T/C endpoint: mean survival time, dose: 50.0 mg/kg/injection, schedule: Q01DX005 (ip), vehicle: other) 1 of 6; (T/C endpoint: mean survival time, dose: 50.0 mg/kg/injection, schedule: Q01DX005 (ip), vehicle: saline with Tween-80) 0 of 6; (T/C endpoint: mean survival time, dose: 100.0 mg/kg/injection, schedule: Q01DX005 (ip), vehicle: other) 0 of 6; (T/C endpoint: mean survival time, dose: 100.0 mg/kg/injection, schedule: Q01DX005 (ip), vehicle: saline with Tween-80) 1 of 6. For the same compound, the survivor count (T/C endpoint: mean survival time, dose: 200.0 mg/kg/injection, schedule: Q01DX005 (ip), vehicle: other) is reported as 0 of 6.

(Values after PubChem BioAssay AID256 (DTP/NCI, 2004).)
